Data taken from publication doi:10.1101/227918.
These are yes or no findings as the source states them, for the method shown. Binding seen in cells or lysates may run through a third protein. Some results given as binding are weak or reduced against the parent protein; the word gives no strength. Where a sequence is shown, tags or fusion partners need not be part of it.

Sequences of proteins named here, by UniProt entry; tags and fusion partners are left off.
UniProt Q9P126: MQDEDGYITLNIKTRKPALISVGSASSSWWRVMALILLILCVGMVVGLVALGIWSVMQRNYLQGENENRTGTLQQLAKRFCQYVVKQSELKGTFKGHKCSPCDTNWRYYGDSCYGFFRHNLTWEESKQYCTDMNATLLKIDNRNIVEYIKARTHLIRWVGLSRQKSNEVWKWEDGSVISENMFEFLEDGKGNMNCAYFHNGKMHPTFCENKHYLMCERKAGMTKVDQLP

Biological target: T1, FLAG-human CD37 (human) (UniProt P11049)
T1 sequence: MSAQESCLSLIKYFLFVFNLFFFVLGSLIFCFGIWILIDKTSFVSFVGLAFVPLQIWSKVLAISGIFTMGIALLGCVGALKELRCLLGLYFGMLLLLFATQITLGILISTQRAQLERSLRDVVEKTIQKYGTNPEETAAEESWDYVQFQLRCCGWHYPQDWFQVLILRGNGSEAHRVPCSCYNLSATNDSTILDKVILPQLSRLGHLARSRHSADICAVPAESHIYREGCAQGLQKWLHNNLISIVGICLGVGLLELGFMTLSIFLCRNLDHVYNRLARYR
Experiment: co-IP

In the case of “human CLEC-2-MYC (C-type lectin-like receptor 2) (from UniProt Q9P126 1-229)”, the binding is reported as “binds”.
